Source: paper PMC5239560
These are yes or no findings as the source states them, for the method shown. Binding seen in cells or lysates may run through a third protein. Some binding calls cover weakened binding; strength is not graded here. Tags and fused reporters may be left off the sequences shown.

By UniProt entry, the sequences of proteins in these tests, tags left out.
UniProt Q9BSK0: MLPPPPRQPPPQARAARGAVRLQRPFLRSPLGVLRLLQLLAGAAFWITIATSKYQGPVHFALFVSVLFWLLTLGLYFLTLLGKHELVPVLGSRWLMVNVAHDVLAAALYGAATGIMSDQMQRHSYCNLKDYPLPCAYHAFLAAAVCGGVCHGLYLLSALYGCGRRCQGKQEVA

Target: T1, Flag-SREBP1a (UniProt P36956)
T1 sequence: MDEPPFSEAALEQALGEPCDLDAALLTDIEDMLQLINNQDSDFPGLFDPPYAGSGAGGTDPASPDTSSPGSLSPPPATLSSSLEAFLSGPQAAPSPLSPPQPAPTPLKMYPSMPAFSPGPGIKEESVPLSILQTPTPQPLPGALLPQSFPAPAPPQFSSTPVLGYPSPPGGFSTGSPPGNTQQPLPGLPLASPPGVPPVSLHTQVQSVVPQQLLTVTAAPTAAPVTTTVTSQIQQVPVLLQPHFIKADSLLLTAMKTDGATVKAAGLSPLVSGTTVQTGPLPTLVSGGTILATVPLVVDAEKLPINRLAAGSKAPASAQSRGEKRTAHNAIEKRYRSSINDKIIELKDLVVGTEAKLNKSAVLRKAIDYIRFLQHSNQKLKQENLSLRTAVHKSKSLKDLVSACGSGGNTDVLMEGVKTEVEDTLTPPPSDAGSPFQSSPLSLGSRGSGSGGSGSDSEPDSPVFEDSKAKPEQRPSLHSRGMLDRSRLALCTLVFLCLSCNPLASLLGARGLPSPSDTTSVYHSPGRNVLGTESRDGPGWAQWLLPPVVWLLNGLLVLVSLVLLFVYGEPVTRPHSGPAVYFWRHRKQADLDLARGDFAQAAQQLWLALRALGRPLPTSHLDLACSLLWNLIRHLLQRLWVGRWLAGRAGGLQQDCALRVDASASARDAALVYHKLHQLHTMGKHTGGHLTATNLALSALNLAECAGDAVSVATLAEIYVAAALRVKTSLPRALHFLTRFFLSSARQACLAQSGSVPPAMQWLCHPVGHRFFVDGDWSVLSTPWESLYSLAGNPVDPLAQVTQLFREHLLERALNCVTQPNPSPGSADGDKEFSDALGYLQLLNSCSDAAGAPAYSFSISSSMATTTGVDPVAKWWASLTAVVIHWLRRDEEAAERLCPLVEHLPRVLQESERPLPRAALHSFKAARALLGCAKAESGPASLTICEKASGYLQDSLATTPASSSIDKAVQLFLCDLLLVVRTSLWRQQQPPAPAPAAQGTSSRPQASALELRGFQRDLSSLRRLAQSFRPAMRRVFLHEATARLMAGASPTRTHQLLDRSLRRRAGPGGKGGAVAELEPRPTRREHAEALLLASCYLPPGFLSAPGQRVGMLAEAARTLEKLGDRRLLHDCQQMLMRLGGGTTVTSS
Assay: co-IP; HEK293T co-transfected with Flag-SREBP1a and HA-MARVELD1, 48 h; lysates in IP buffer, anti-Flag M2 affinity gel 3 h at 4°C (IgG as control); immunoblot with anti-HA and anti-Flag

HA-MARVELD1 (from UniProt Q9BSK0 1-173)
binding: binds
